Out of some 53,000 sequences screened, about 3,700 (7%) were called active.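 How the source made its calls: active means gene knockdowns whose robust z-score for IL-1 alpha signal is at least 2 or at most -2, so actives lie on both sides; inactive means the rest.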 The list shows a part of the results.
Assay: Components of the Cytosolic LPS Sensing Pathway: Gene Identification via Genome-wide siRNA Screen;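 further: robust z of the log signal after scaling to non-targeting control siRNA wells of the plate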
Settings: RAW264.7 macrophages, IL-1a HTRF, actives lie on both sides, screened at 100 nM (by protocol), cells primed 5 h with Pam3CSK4 first
Method in brief: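 RAW264.7 mouse macrophages reverse-transfected with single siRNAs (100 nM final) for 48h, primed with Pam3CSK4 for 5 hours, then transfected with LipidA for 24 hour. Supernatant IL-1a read by HTRF; values normalized to negative-control median, log-transformed robust z-scores.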

Row | Sequence | z-score
1 | GGAACAGCAUGCUUACAUUTT against Ugt1a6b | inactive: 1.25
2 | GGAUAGGAUUCGAUGUCGUTT against Ntpcr | inactive: -1.36
3 | CCUCGAAAAUUUGAUACCGTT against Alkbh8 | inactive: 1.81
4 | GGAGGAGGAAGAAAUACCGTT against Gspt1 | inactive: -0.852
5 | GGAUAACCUUGAAUUUCUGTT against Il5 | inactive: 0.62
6 | GGAAGUUUGUUCAUCCCACTT against Reep1 | inactive: -0.893
7 | CCCACCUUCCAAAAGGAUCTT against 5031434C07Rik | inactive: -0.882
8 | GGAAGAAGCCACCAUGUACTT against Pbx4 | inactive: -1.75
9 | GCAAGCUAAAGGUACAGAATT against Ncoa6 | inactive: -0.84
10 | GCUAAUCGGUAUUGAUGAUTT against Dab2 | inactive: -0.816
11 | CCACCUGUACACCUAGACUTT against Pex12 | inactive: -1.67
12 | GGUGAAGAUUGACAAGAAATT against Spout1 | inactive: 0.254
13 | GGUGAUAAAGCUAUGUAUUTT against Ccn2 | inactive: 0.147
14 | GCACAUGGGAGACUAUGAATT against Necab2 | inactive: -1.14
15 | AAGCCCAUAUACUGAAGGUTT against Klk1b22 | inactive: -0.725
16 | CGGUCAUUUGAAGUAGGAATT against Pwwp3a | inactive: 0.76
17 | GCAUGGACAAAUGUCCCUGTT against Lce1f | inactive: -0.24
18 | GGUCAUGGGACAGCAAAUGTT against Tmco6 | inactive: -1.67
19 | GGCCAAAGUACUUUGUUCCTT against Pdpr | active: 3.63
20 | GGAUGACCGUGCUAGAAAUTT against Klra2 | inactive: -0.657
21 | CGUGGUUCCCAUCAGAAAGTT against Gtsf1l | inactive: 0.733
22 | GCCUGCCAACCAGCGUAAUTT against Pard6a | inactive: 1.24
23 | GGAGAUGGUGCCAGAGAAGTT against Cfc1 | inactive: 1.06

As entered above:
z-score with GCAUGGACAAAUGUCCCUGTT against Lce1f is entered as inactive: -0.24
z-score with GGUGAUAAAGCUAUGUAUUTT against Ccn2 is entered as inactive: 0.147

(continued)

Row | Sequence | z-score
24 | GGAAUGAGGGUAAUGAAUATT against Plin3 | inactive: -1.74
25 | CCUGGAACUUGUCUUUUUUTT against Olfr1388 | inactive: 1.4
26 | GGGACACAUUUAAAAAAACTT against Dennd2a | inactive: -0.874
27 | CCAUCAUUGUUCUUGCAAGTT against Olfr1387 | inactive: -0.0905
28 | GGACCUCUUCUCUGUCUUUTT against Ubl7 | inactive: 0.137
29 | GCUAUUGGAUGAGCGAUUGTT against Crlf3 | inactive: 0.422
30 | CGGUUAUCUAGACUUAAAATT against Zfp760 | inactive: 0.697
31 | GGCUUCUUUUGCUACACCUTT against Olfr729 | inactive: -0.0147
32 | GCAUGCAUGGUACAAUUUUTT against Olfr1166 | inactive: 1.45
33 | GGUAGUGGACAGUUUUGACTT against Mrpl55 | inactive: 0.675
34 | GGCCUUUAACAUCCGCCUATT against Ddb1 | inactive: -1.49
35 | CCGAAUAUCGAGUUCCCAATT against Ceacam20 | inactive: -0.0196
36 | GGUUCUUUUCCUGUUUUACTT against Olfr434 | inactive: 0.161
37 | GGAGAGUUGCCUCAAACAUTT against Ubac1 | inactive: 0.577
38 | GGUGGCAUGUCAUUGCUUCTT against Igf2 | inactive: -0.423
39 | GCAUUGUCAGUCCUACGUGTT against Stac3 | inactive: 1.09
40 | GCCGAUGGAUUCCUCUCAUTT against Rhot1 | inactive: 0.316
41 | GGUGAAAUAGCUAAAUCAUTT against Usp15 | inactive: 0.254
42 | GGGAAAACUACGCAAGAGCTT against Tra2a | inactive: 1.18
43 | GGAUGUUUCGAAUUAAGAGTT against Uqcrb | inactive: 0.0758
44 | GGAAGGAUCAUUCUGUGAATT against Ly6h | inactive: -0.311
45 | GGAACAUGACAGAGAUUUUTT against Adgrb1 | inactive: 0.376
46 | GGCUUUUCUUACAAAGCAATT against Yipf2 | inactive: -0.956

Row | Sequence | z-score
47 | GGAGUUUCAACAAAGAAGCTT against Dock3 | inactive: 0.267
48 | GGAGCUGGACCUGCUGUUATT against Atp6v0e2 | inactive: 1.54
49 | GGACAUGUGAAGAUAAACGTT against Mug1 | inactive: -0.137
50 | CCGGAAAAAGGAUAAGACATT against Rgs6 | inactive: 0.785
51 | GGUCACAAUGAAGGUCAAGTT against Plxdc1 | inactive: -0.66
52 | GGCUUCAAAGGCAAAGUUCTT against Fbf1 | inactive: -1.5
53 | GGAAUUUGAAUCACGUUUGTT against Hprt | inactive: 1.72
54 | GGUGAUGAAACAAAGACAATT against Znrd1as | inactive: -0.266
55 | GGUGCCCAUAAUAGCCAUCTT against Polr2c | inactive: -1.02
56 | GGAAGAAUUCACAAAGAUGTT against Snx6 | inactive: -0.913
57 | GGAACUGAAAAACUCAACUTT against Evi2a | active: -3.13
58 | GGAUUUAGUUCAGAUUUGUTT against Ubp1 | inactive: 0.833
59 | GCUCUCACCCAUGUGACGATT against Micall2 | inactive: 0.607
60 | CGACAAAUAUGAGAGACUCTT against Tsnax | inactive: 0.406
61 | GGUGGACCUGCACUUUACCTT against Fam135b | inactive: 0.67
62 | GCAAUCAUGCCCAAGAAAUTT against Foxn3 | inactive: -0.63
63 | GGUGGUGGGUCCAAUUUUUTT against Jpt1 | inactive: 0.411
64 | GGAGAAAAUGAUAACAUGCTT against Mto1 | inactive: -0.606
65 | GGAACAUGGUGUAAAUUCUTT against Serpinb9e | inactive: 1.66
66 | UCGCCUACGGACUGUUCGGTT against Kcnk12 | inactive: -0.132
67 | GCACUGCCCAACAACCAUUTT against Scamp4 | inactive: -1.34
68 | CGAACAGAUAUUAUGUCAUTT against Tmem176b | inactive: 0.548

Shown as a markdown table: part of the list above

| Row | Sequence | z-score |
| --- | --- | --- |
| 52 | GGCUUCAAAGGCAAAGUUCTT against Fbf1 | inactive: -1.5 |
| 53 | GGAAUUUGAAUCACGUUUGTT against Hprt | inactive: 1.72 |
| 54 | GGUGAUGAAACAAAGACAATT against Znrd1as | inactive: -0.266 |
